Test results published in paper PMC10564737, “Structure-based design of a phosphotyrosine-masked covalent ligand targeting the E3 ligase SOCS2” (Nature Communications, 2023).
Several values for one entry are separate records, joined by “and”; a condition that tells them apart may be missing. Equal entries are not always repeated. The source gives many values for each of these; only a part stands here.

Chains of the proteins cited; added tags and fusions are not shown. Residues count along the entry.
UniProt O14508, 32-198: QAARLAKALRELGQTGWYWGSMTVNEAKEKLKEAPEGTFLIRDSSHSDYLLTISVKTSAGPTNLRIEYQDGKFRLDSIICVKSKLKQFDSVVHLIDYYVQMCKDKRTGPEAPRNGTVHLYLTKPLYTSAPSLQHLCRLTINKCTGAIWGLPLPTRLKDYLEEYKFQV

Target: T1, SBC2 (Homo sapiens, UniProt O14508)
T1 construct: SOCS2 (amino acids 32–198); His6 (N, cleaved yes); made in house; host or cells: E. coli BL21(DE3)
Assay: Covalent fluorescence polarization (FP) probe displacement assay
Format: binding
Description: With the specific covalent modification of Cys111 established, we decided to fully characterize MN551 as a covalent SOCS2 inhibitor. […] (Fig. 2g, h, Supplementary Fig. 9). Due to the covalent nature of the competing inhibitor, a time-dependent reduction in the fraction of protein-bound probe is observed. […] This value illustrates reasonable specificity for a covalent inhibitor, with nonetheless scope for future optimization. In addition to characterizing the kinetic covalency parameters, we have also assessed the stability of the MN551 by monitoring its reactivity (half-life >70 min) with reduced glutathione (GSH) (Supplementary Fig. 10)[35].
To monitor the SBC2-ligand binding kinetics we designed a fluorescein-labeled small-molecule probe - compound 26. The fluorescence polarization (anisotropy) of a threefold serial dilution of 50 µM SBC2 in 10 nM of the probe in 100 mM HEPES pH 7.5, 50 mM NaCl, 0.5 mM TCEP, 2% DMSO was measured to determine the KL (Supplementary Fig. 9A) (BMG Labtech PHERAstar – firmware v1.33). Protein titration and the curves were fitted using GraphPad Prism 9, using one-site fitting models to determine the probe binding constant, KL. Samples were run in triplicate in 384 well plates, using a total volume per well of 16 μL. The bound fraction of the probe is measure using the equation:1 Fb=Af−A/Af−Ab Where,
A time-dependent reduction in probe anisotropy were measured for a 2-fold serial dilution of […] compound MN551 in 10 nM probe +300 μM SBC2. To determine the initial reversible binding affinity, the initial bound fraction of the probe at time = 0, Fbo (the y-intercept in Fb v/s Time plot, Supplementary Fig. 9B) was plotted against MN551 concentration, and the obtained IC50 is then converted to Ki (Supplementary Fig. 9C)[17]. The slope from Fb versus time graph when divided by Fbo gives rate of covalency, kobs. A plot of kobs v/s MN551 concentration using Michaelis–Menten model of GraphPad Prism 9, provides the parameters kinact (maximum potential rate of inactivation) and KI (concentration of MN551 at which kobs = kinact/2) (Supplementary Fig. 9D, E).
The observed first-order rate constant, kobs is related to KI and kinact by the equation:2 kobs=kinactI/KI+I
At [I]«[KI] the above equation is converted to3 […]
The slope from the plot of kobs against concentration of MN551 gives us the covalent efficiency parameter kinact/KI (Supp Fig. 9F)[30],[33].

[1] = MN551 94.8645 nM; Cycle 14 (65 min); n=1
[2] = MN551 94.8645 nM; Cycle 15 (70 min); n=1
[3] = MN551 94.8645 nM; Cycle 16 (75 min); n=1
[4] = MN551 97.6562 nM, Cycle 8 (35 min)
[5] = MN551 97.6562 nM, Cycle 9 (40 min)
[6] = MN551 97.6562 nM, Cycle 10 (45 min)
[7] = MN551 97.6562 nM; Cycle 6 (25 min)
[8] = MN551 97.6562 nM; Cycle 7 (30 min)
[9] = MN551 97.6562 nM; Cycle 8 (35 min)
[10] = MN551 97.6562 nM; Cycle 9 (40 min)
[11] = MN551 97.6562 nM; Cycle 10 (45 min)
[12] = MN551 97.6562 nM; Cycle 12 (55 min); n=1
[13] = MN551 97.6562 nM; Cycle 13 (60 min); n=1
[14] = MN551 97.6562 nM; Cycle 14 (65 min); n=1
[15] = MN551 97.6562 nM; Cycle 15 (70 min); n=1
[16] = MN551 97.6562 nM; Cycle 16 (75 min); n=1
[17] = MN551 132.81 nM, Cycle 8 (35 min)
[18] = MN551 132.81 nM, Cycle 9 (40 min)
[19] = MN551 132.81 nM, Cycle 10 (45 min)
[20] = MN551 132.81 nM, Cycle 11 (50 min)
[21] = MN551 132.81 nM, Cycle 16 (75 min), n=1
[22] = MN551 132.81 nM, Cycle 17 (80 min), n=1
[23] = MN551 132.81 nM, Cycle 18 (85 min), n=1
[24] = MN551 132.81 nM; Cycle 7 (30 min)
[25] = MN551 132.81 nM; Cycle 8 (35 min)

O=C(CCl)Nc1cccc(CNC(=O)[C@H](Cc2ccc(OP(=O)(O)O)cc2)NC(=O)Cc2ccc(F)cc2)c1 [MN551]
Anisotropy [1]: 267.2 and 260.7 and 259.4 | Anisotropy based on Raw Data (485) [1]: 272.6 and 273.5 and 271.2 | Anisotropy [2]: 266.7 and 258.8 and 259.1 | Anisotropy based on Raw Data (485) [2]: 270.1 and 271.9 | Anisotropy [3]: 267.4 and 256.2 and 257.5 | Anisotropy based on Raw Data (485) [3]: 269.4 and 270.5 and 267.5 | Anisotropy data 485,520,520 (MN551 94.8645 nM; Cycle 19 (90 min); n=1): 271.1 and 270.1 and 264.5 | Anisotropy data 485,520,520 (MN551 94.8645 nM; Cycle 20 (95 min); n=1): 269.6 and 267.9 and 263.4 | Fb (MN551 97.6562 nM, Cycle 7 (30 min)): 0.8526 and 0.9724 and 0.9434 | Anisotropy based on Raw Data (485) [4]: 279.9 and 281.1 and 276.7 | Fb [4]: 0.8704 and 0.9742 and 0.944 | Anisotropy based on Raw Data (485) [5]: 277.4 and 278.3 and 274.8 | Fb [5]: 0.8422 and 0.9665 and 0.9391 | Anisotropy based on Raw Data (485) [6]: 278.2 and 278 and 273.2 | Fb [6]: 0.8481 and 0.9518 and 0.942 | Anisotropy based on Raw Data (485) (MN551 97.6562 nM, Cycle 11 (50 min)): 277.4 and 278.8 and 270 | Anisotropy (MN551 97.6562 nM, Cycle 13 (60 min), n=1): 277.6 and 278.4 | Anisotropy (MN551 97.6562 nM, Cycle 14 (65 min), n=1): 276 and 278.5 and 272.7 | Anisotropy (MN551 97.6562 nM, Cycle 15 (70 min), n=1): 276.3 and 276.5 and 273.3 | Anisotropy (MN551 97.6562 nM, Cycle 16 (75 min), n=1): 276.1 and 276.2 and 272.3 | Anisotropy (MN551 97.6562 nM, Cycle 17 (80 min), n=1): 275.7 and 275.8 and 270.2 | Fb, fraction bound (MN551 97.6562 nM; Cycle 3 (10 min)): 1.028 and 1.02 and 0.9982 | Fb, fraction bound (MN551 97.6562 nM; Cycle 4 (15 min)): 1.01 and 1.014 and 0.9845 | Fb, fraction bound (MN551 97.6562 nM; Cycle 5 (20 min)): 1.005 and 1.078 and 0.9835 | Anisotropy data 485,520,520 [7]: 280 and 277 and 279.2 | Fb [7]: 1.001 and 0.9519 and 0.9691 | Fb, fraction bound [7]: 1.002 and 1.058 and 0.979 | Anisotropy data 485,520,520 [8]: 276.3 and 277.9 | Fb [8]: 1.0109 and 0.9669 and 1.006 | Fb, fraction bound [8]: 1.02 and 1.03 and 1.007 | Anisotropy [9]: 281.7 and 281.5 and 277.6 | Anisotropy data 485,520,520 [9]: 278.5 and 276 and 278 | Fb [9]: 1.014 and 0.9552 and 0.9991 and 1.021 and 1.008 and 0.9812 | Anisotropy [10]: 281.1 and 282.7 and 280.1 | Anisotropy data 485,520,520 [10]: 276 and 273.5 and 277.4 | Fb [10]: 1.014 and 0.9453 and 0.9991 and 1.002 and 1.036 and 1.016 | Anisotropy [11]: 279.2 and 282.3 and 276.3 | Anisotropy data 485,520,520 [11]: 274 and 272 and 275 | Fb [11]: 1.011 and 0.9428 and 0.9885 and 0.9942 and 1.046 and 0.9833 | Anisotropy (MN551 97.6562 nM; Cycle 11 (50 min); n=1): 274 and 273.6 and 273.5 | Anisotropy [12]: 274 and 271.6 and 272.1 | Anisotropy based on Raw Data (485) [12]: 277.7 and 279 and 270.9 | Anisotropy [13]: 271.3 and 272 and 270.5 | Anisotropy based on Raw Data (485) [13]: 277.8 and 276.4 and 273.2 | Anisotropy [14]: 274.6 and 269.4 and 270.7 | Anisotropy based on Raw Data (485) [14]: 277.3 and 276.1 and 269.7 | Anisotropy [15]: 272.4 and 269 and 267.6 | Anisotropy based on Raw Data (485) [15]: 273 and 276.1 and 270 | Anisotropy [16]: 270.8 and 268.2 | Anisotropy based on Raw Data (485) [16]: 272.7 and 274.8 and 268.7 | Anisotropy data 485,520,520 (MN551 97.6562 nM; Cycle 19 (90 min); n=1): 273.3 and 275.9 and 270.9 | Anisotropy data 485,520,520 (MN551 97.6562 nM; Cycle 20 (95 min); n=1): 271.7 and 272.1 and 268.6 | Fb (MN551 132.81 nM, Cycle 7 (30 min)): 0.8938 and 0.8581 and 0.9072 | Anisotropy based on Raw Data (485) [17]: 278.1 and 277.5 and 269.6 | Fb [17]: 0.8824 and 0.8731 and 0.8744 | Anisotropy based on Raw Data (485) [18]: 278.3 and 277.1 and 270.5 | Fb [18]: 0.8503 and 0.8817 and 0.8713 | Anisotropy based on Raw Data (485) [19]: 276.8 and 275.5 and 269.1 | Fb [19]: 0.9053 and 0.9152 and 0.8956 | Anisotropy based on Raw Data (485) [20]: 276.8 and 273.8 and 269.7 | Fb [20]: 0.8769 and 0.8476 and 0.9061 | Anisotropy (MN551 132.81 nM, Cycle 13 (60 min), n=1): 271.9 and 271.1 and 267.7 | Anisotropy (MN551 132.81 nM, Cycle 14 (65 min), n=1): 271.2 and 270.4 and 268.8 | Anisotropy (MN551 132.81 nM, Cycle 15 (70 min), n=1): 269.3 and 271.2 and 266.4 | Anisotropy [21]: 268.9 and 269.2 and 269.3 | Normalised anisotropy (0 nM MN551 = 1, free probe = 0) [21]: 0.9377 and 0.9642 and 0.9598 | Anisotropy [22]: 269.4 and 269.2 and 265.8 | Normalised anisotropy (0 nM MN551 = 1, free probe = 0) [22]: 0.9673 and 0.9565 and 0.9541 | Anisotropy [23]: 269.6 and 268.6 and 266.1 | Normalised anisotropy (0 nM MN551 = 1, free probe = 0) [23]: 0.9797 and 0.9655 and 0.9841 | Fb, fraction bound (MN551 132.81 nM; Cycle 4 (15 min)): 1.013 and 0.9868 and 1.0124 | Fb, fraction bound (MN551 132.81 nM; Cycle 5 (20 min)): 0.9971 and 0.9831 and 0.9825 | Fb, fraction bound (MN551 132.81 nM; Cycle 6 (25 min)): 0.9879 and 0.9837 and 0.9753 | Anisotropy data 485,520,520 [24]: 271.5 and 262.4 and 267 | Fb [24]: 0.9912 and 1.021 and 1.043 | Fb, fraction bound [24]: 0.9586 and 0.971 and 0.9924 | Anisotropy [25]: 278.1 and 274.8 and 272.7 | Anisotropy data 485,520,520 [25]: 271 and 263.9 and 265.1 | Fb [25]: 0.9923 and 1.029 and 1.03 and 1.014 and 0.9576 and 0.9718 | Anisotropy (MN551 132.81 nM; Cycle 9 (40 min)): 274.1 and 273.8 and 271.9
